Structures can show the parent of a compound that is named as a salt. Some of the results follow. The calls rarely recur for the same compound in another form.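 Kinases, fused to nanoluciferase, were expressed in K562 cells; luminescence was measured every 4 h from 2 to 18 h as percent of control (DMSO = 100%, positive control = 0%). A time point is decreased if signal falls significantly (2 sigma). Hits were called by the authors by a rule that is not shown; the count of time points alone does not decide it.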
How the values were obtained:
Experiment in all cases: kinase-Nluc reporter destabilization hit call (1 = scored as downregulated) (binary); higher = compound decreases kinase abundance
Details in all cases: K562; 2-18 h
IRAK3 = IRAK3 (UniProt Q9Y616)
JAK1 = JAK1 (UniProt P23458)
LCK = LCK (UniProt P06239)
LIMK1 = LIMK1 (UniProt P53667)
LIMK2 = LIMK2 (UniProt P53671)
LMTK2 = LMTK2 (UniProt Q8IWU2)
LYN = LYN (UniProt P07948)
MAP2K1 = MAP2K1 (UniProt Q02750)
MAP2K2 = MAP2K2 (UniProt P36507)
MAP4K2 = MAP4K2 (UniProt Q12851)

Sequences of proteins named here, by UniProt entry; tags and fusion partners are left off. A change or cut given only in a name is not applied to a line headed by its entry.
UniProt Q9Y616: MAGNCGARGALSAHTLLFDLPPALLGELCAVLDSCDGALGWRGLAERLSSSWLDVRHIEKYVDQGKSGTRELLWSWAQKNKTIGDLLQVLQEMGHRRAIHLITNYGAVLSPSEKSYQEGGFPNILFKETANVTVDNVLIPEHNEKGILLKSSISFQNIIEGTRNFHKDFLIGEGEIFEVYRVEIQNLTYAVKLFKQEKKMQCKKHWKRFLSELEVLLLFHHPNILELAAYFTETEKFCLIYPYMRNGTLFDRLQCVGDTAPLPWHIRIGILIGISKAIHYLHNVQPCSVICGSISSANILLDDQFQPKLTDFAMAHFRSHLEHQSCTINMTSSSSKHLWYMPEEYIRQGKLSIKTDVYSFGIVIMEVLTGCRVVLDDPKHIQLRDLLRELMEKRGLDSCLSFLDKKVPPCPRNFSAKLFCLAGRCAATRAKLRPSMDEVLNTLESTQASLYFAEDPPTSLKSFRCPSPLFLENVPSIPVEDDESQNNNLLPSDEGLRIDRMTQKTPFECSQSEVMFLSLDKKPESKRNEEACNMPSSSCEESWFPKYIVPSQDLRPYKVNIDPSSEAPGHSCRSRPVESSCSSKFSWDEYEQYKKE
UniProt P23458: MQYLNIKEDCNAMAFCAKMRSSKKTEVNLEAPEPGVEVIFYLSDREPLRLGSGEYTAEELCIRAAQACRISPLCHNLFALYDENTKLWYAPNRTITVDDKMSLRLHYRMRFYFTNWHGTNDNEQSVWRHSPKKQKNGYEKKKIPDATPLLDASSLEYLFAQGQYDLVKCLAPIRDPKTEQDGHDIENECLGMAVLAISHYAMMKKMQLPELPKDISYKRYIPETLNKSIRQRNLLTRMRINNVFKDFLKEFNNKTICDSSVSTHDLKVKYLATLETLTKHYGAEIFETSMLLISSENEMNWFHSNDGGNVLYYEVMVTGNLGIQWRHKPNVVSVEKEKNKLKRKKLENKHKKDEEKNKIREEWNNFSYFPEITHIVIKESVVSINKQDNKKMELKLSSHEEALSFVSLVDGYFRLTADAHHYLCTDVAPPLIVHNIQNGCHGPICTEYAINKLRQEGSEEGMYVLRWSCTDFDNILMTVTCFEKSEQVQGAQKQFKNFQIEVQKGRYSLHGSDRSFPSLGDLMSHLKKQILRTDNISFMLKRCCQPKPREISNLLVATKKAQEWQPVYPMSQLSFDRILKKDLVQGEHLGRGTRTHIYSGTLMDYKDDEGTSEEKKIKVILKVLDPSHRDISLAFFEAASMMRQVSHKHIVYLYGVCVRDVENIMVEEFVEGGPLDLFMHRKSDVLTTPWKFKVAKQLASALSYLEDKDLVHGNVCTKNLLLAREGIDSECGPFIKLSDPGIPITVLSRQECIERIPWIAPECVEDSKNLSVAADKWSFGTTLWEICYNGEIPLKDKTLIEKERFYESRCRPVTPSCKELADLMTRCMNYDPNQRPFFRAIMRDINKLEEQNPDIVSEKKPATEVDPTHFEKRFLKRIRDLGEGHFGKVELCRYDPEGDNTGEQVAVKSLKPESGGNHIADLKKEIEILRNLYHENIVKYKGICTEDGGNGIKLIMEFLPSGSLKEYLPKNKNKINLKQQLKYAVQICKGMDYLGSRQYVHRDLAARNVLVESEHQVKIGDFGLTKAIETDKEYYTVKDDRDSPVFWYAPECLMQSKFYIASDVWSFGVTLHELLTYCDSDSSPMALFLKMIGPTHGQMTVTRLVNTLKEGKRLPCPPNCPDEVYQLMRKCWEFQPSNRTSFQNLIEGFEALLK
UniProt P06239: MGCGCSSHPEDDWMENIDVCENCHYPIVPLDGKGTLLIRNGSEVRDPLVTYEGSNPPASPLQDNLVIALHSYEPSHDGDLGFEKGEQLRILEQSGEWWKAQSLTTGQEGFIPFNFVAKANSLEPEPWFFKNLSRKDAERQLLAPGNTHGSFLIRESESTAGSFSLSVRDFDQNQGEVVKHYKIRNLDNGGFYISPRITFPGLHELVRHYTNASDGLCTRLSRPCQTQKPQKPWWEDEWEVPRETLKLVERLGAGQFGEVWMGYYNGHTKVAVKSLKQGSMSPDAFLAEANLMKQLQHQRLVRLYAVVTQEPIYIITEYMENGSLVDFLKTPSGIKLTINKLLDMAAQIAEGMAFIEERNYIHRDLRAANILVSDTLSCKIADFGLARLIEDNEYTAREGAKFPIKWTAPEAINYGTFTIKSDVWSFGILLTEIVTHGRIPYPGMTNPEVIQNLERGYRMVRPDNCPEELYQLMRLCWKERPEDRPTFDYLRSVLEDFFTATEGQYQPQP
UniProt P53667: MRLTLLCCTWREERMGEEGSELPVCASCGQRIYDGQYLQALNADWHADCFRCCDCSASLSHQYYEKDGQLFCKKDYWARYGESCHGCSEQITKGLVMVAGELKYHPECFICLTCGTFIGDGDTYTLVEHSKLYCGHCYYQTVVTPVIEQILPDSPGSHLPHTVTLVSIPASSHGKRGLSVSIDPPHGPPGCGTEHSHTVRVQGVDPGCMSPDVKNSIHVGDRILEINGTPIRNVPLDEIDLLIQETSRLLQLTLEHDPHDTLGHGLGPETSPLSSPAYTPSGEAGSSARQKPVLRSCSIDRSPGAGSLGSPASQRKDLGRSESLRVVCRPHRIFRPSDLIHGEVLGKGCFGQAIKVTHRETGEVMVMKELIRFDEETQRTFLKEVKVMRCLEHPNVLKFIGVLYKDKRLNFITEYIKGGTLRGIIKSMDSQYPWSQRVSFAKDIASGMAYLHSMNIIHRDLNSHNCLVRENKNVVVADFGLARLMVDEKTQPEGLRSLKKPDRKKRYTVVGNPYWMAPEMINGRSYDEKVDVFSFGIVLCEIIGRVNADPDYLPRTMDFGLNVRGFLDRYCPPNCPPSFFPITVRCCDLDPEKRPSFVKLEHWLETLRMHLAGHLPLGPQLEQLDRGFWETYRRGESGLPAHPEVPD
UniProt P53671: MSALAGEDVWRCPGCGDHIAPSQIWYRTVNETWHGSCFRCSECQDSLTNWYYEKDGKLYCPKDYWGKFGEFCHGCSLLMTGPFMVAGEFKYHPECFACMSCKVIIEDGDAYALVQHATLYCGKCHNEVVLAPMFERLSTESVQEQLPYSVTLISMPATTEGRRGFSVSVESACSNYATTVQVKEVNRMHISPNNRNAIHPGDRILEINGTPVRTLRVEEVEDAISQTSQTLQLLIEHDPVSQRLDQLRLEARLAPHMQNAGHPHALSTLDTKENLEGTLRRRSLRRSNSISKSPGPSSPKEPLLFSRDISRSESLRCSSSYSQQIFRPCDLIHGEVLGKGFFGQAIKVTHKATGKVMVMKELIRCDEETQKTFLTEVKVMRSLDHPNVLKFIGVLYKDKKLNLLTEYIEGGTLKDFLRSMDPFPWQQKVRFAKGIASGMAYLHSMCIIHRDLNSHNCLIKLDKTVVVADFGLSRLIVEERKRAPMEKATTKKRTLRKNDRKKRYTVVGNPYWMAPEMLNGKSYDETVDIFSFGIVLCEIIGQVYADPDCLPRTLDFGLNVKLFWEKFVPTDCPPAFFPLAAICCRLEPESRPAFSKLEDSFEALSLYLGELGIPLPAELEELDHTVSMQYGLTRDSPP
UniProt Q8IWU2: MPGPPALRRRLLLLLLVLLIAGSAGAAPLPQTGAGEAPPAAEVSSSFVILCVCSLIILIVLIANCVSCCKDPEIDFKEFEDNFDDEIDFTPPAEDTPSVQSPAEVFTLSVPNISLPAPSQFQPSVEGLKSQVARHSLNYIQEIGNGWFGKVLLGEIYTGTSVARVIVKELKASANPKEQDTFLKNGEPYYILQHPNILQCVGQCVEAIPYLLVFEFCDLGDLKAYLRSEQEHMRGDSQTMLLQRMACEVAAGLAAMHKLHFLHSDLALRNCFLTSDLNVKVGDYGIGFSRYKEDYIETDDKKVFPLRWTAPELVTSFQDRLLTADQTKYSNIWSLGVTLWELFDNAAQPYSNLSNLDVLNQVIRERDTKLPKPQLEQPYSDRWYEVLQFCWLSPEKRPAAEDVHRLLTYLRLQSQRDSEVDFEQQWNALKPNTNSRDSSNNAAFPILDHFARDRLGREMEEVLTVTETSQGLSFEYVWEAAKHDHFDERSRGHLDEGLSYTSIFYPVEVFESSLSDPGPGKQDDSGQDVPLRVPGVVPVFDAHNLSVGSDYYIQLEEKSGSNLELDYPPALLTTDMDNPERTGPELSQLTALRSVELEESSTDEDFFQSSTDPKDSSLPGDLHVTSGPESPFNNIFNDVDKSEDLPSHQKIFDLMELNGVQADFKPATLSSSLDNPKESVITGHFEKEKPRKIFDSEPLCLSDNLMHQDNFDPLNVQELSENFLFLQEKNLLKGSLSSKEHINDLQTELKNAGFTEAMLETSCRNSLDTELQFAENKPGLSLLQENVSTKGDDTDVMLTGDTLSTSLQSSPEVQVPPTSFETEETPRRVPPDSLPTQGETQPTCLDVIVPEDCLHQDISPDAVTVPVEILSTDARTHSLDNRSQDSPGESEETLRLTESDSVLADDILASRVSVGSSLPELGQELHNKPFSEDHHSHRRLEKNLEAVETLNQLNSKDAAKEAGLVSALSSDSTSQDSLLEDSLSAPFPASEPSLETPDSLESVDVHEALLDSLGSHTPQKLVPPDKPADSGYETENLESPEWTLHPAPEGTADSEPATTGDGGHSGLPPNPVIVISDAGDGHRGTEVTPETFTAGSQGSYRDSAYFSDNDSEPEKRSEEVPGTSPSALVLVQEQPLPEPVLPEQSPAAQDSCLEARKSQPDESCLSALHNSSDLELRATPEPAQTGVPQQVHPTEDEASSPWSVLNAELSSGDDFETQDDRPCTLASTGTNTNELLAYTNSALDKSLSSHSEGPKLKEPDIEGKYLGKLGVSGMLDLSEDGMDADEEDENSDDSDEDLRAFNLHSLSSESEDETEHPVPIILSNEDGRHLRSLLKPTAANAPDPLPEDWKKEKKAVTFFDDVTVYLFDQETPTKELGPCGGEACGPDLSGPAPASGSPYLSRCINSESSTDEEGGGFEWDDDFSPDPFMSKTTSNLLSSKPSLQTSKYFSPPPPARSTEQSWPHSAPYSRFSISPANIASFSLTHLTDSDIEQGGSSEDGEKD
UniProt P07948: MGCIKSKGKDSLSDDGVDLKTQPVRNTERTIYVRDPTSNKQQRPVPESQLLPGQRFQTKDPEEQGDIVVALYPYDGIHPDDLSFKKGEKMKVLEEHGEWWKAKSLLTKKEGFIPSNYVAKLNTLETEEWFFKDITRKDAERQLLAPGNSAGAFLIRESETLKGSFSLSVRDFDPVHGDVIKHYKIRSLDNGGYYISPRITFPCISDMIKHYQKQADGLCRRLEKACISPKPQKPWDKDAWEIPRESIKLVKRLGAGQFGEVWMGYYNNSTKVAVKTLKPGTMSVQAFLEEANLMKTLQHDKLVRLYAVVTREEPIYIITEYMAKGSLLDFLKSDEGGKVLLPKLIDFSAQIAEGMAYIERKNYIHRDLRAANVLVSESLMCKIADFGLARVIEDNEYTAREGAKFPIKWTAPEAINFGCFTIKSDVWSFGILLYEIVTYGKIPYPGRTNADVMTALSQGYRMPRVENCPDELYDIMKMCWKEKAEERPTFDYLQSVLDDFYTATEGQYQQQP
UniProt Q12851: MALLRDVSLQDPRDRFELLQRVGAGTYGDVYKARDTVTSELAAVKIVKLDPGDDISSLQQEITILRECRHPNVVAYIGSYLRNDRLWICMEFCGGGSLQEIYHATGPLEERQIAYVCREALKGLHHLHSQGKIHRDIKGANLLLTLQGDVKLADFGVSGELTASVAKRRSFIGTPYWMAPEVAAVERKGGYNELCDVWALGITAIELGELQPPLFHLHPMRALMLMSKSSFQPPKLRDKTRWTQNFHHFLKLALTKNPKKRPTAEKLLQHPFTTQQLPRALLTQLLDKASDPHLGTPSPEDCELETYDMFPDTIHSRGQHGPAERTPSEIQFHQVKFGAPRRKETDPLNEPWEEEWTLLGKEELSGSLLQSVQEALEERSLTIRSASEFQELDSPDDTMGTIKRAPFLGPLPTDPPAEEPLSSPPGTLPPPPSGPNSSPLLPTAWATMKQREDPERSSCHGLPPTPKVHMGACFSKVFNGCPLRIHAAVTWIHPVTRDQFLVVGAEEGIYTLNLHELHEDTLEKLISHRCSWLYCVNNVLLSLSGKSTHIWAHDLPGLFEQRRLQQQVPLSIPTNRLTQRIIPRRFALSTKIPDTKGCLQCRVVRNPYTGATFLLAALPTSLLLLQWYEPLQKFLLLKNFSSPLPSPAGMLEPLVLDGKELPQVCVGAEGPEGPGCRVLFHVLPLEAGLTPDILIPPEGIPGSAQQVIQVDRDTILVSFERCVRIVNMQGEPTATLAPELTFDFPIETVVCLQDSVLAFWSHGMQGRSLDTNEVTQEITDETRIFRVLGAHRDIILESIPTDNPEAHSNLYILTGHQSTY

Measured: kinase-Nluc reporter destabilization hit call

N[C@H](Cc1c[nH]c2ccccc12)C(=O)N/N=C/c1ccc2nccnc2c1 [Rhosin (hydrochloride)] (10 µM)
inactive: IRAK3 = 0 | JAK1 = 0 | LCK 0 | LIMK1 = 0 | LIMK2 = 0 | LMTK2 = 0 | LYN 0 | MAP2K1 = 0 | MAP2K2 = 0 | MAP4K2 = 0

Nc1ncnc2c1c(-c1ccc(Oc3ccccc3)cc1)nn2C1CCCNC1 (racemic) (2.5 µM)
inactive: IRAK3 = 0 | JAK1 = 0 | LCK 0 | LIMK1 = 0 | LIMK2 = 0 | LMTK2 = 0 | LYN 0 | MAP2K1 = 0 | MAP2K2 = 0 | MAP4K2 = 0

OC(COc1ccc(C(F)(F)F)cc1)CN(Cc1ccccc1)Cc1ccccc1 (stereo not given) (2.5 µM)
inactive: IRAK3 = 0 | JAK1 = 0 | LCK 0 | LIMK1 = 0 | LIMK2 = 0 | LMTK2 = 0 | LYN 0 | MAP2K1 = 0 | MAP2K2 = 0 | MAP4K2 = 0

COc1cccc(-n2c(=O)[nH]c3cc(Cl)n(-c4ccc(-c5cccc(OC)c5O)cc4)c3c2=O)c1 (2.5 µM)
inactive: IRAK3 = 0 | JAK1 = 0 | LCK 0 | LIMK1 = 0 | LIMK2 = 0 | LMTK2 = 0 | LYN 0 | MAP2K1 = 0 | MAP2K2 = 0 | MAP4K2 = 0

COCCO[C@@H]1[C@H](O)[C@@H](CO)O[C@H]1n1cnc2c(=O)[nH]c(N)nc21 [2′-O-(2-Methoxyethyl)guanosine] (10 µM)
inactive: IRAK3 = 0 | JAK1 = 0 | LCK 0 | LIMK1 = 0 | LIMK2 = 0 | LMTK2 = 0 | LYN 0 | MAP2K1 = 0 | MAP2K2 = 0 | MAP4K2 = 0

CNC(=O)Nc1ccc(-c2cc(-c3ccnc(Nc4ccc(C)c(S(=O)(=O)N(C)C)c4)n3)ccn2)cc1 [hSMG-1 inhibitor 11e] (2.5 µM)
inactive: IRAK3 = 0 | JAK1 = 0 | LCK 0 | LIMK1 = 0 | LIMK2 = 0 | LMTK2 = 0 | LYN 0 | MAP2K1 = 0 | MAP2K2 = 0 | MAP4K2 = 0

CC1CCc2nc(N)c(C#N)c(-c3cccnc3)c2C1 (stereo not given) (10 µM)
inactive: IRAK3 = 0 | JAK1 = 0 | LCK 0 | LIMK1 = 0 | LIMK2 = 0 | LMTK2 = 0 | LYN 0 | MAP2K1 = 0 | MAP2K2 = 0 | MAP4K2 = 0

C=C(CCC=C(C)C)[C@H]1CC[C@]2(C)[C@@H]1[C@H](O)C[C@@H]1[C@@]3(C)CC[C@H](O[C@@H]4O[C@H](CO)[C@@H](O)[C@H](O)[C@H]4O[C@@H]4O[C@H](CO)[C@@H](O)[C@H](O)[C@H]4O)C(C)(C)[C@@H]3CC[C@]12C [Ginsenoside Rk1] (10 µM)
inactive: IRAK3 = 0 | JAK1 = 0 | LCK 0 | LIMK1 = 0 | LIMK2 = 0 | LMTK2 = 0 | LYN 0 | MAP2K1 = 0 | MAP2K2 = 0 | MAP4K2 = 0

CN1CCN(c2ccc(C(=O)Nc3cc(-c4cccc(NS(=O)(=O)c5ccccc5)c4)[nH]n3)cc2)CC1 [BPR1J-097 Hydrochloride] (2.5 µM)
inactive: IRAK3 = 0 | JAK1 = 0 | LCK 0 | LIMK1 = 0 | LIMK2 = 0 | LMTK2 = 0 | LYN 0 | MAP2K1 = 0 | MAP2K2 = 0 | MAP4K2 = 0

N#Cc1cccc(-c2c[nH]c3ncnc(N4CCOCC4)c23)c1 (10 µM)
inactive: IRAK3 = 0 | JAK1 = 0 | LCK 0 | LIMK1 = 0 | LIMK2 = 0 | LMTK2 = 0 | LYN 0 | MAP2K1 = 0 | MAP2K2 = 0 | MAP4K2 = 0

COc1ccc([C@@H]2CC(=O)c3c(O)cc(O)cc3O2)cc1O [Hesperetin] (10 µM)
inactive: IRAK3 = 0 | JAK1 = 0 | LCK 0 | LIMK1 = 0 | LIMK2 = 0 | LMTK2 = 0 | LYN 0 | MAP2K1 = 0 | MAP2K2 = 0 | MAP4K2 = 0

NC1(Cc2ccc(Cl)cc2)CCN(c2ncnc3[nH]ccc23)CC1 (10 µM)
inactive: IRAK3 = 0 | JAK1 = 0 | LCK 0 | LIMK1 = 0 | LIMK2 = 0 | LMTK2 = 0 | LYN 0 | MAP2K1 = 0 | MAP2K2 = 0 | MAP4K2 = 0

CCOc1ccc(C(=O)Nc2ncc([N+](=O)[O-])s2)cc1 (10 µM)
inactive: IRAK3 = 0 | JAK1 = 0 | LCK 0 | LIMK1 = 0 | LIMK2 = 0 | LMTK2 = 0 | LYN 0 | MAP2K1 = 0 | MAP2K2 = 0 | MAP4K2 = 0

Entries from the list above that contain an aryl methoxy group, in the order listed:
COc1cccc(-n2c(=O)[nH]c3cc(Cl)n(-c4ccc(-c5cccc(OC)c5O)cc4)c3c2=O)c1 (2.5 µM)
inactive: IRAK3 = 0 | JAK1 = 0 | LCK 0 | LIMK1 = 0 | LIMK2 = 0 | LMTK2 = 0 | LYN 0 | MAP2K1 = 0 | MAP2K2 = 0 | MAP4K2 = 0

COc1ccc([C@@H]2CC(=O)c3c(O)cc(O)cc3O2)cc1O [Hesperetin] (10 µM)
inactive: IRAK3 = 0 | JAK1 = 0 | LCK 0 | LIMK1 = 0 | LIMK2 = 0 | LMTK2 = 0 | LYN 0 | MAP2K1 = 0 | MAP2K2 = 0 | MAP4K2 = 0

Continued.

CC(C)NC(=O)N1CC[C@H](NC2=Nc3cc(F)ccc3N(CC(F)F)c3ccc(Cl)cc32)C1 (10 µM)
inactive: IRAK3 = 0 | JAK1 = 0 | LCK 0 | LIMK1 = 0 | LIMK2 = 0 | LMTK2 = 0 | LYN 0 | MAP2K1 = 0 | MAP2K2 = 0 | MAP4K2 = 0

Cc1ccc(Oc2nc3cc(-c4ccc5c(ccn5C)c4)c(Cl)cc3[nH]2)cc1C(=O)O (10 µM)
inactive: IRAK3 = 0 | JAK1 = 0 | LCK 0 | LIMK1 = 0 | LIMK2 = 0 | LMTK2 = 0 | LYN 0 | MAP2K1 = 0 | MAP2K2 = 0 | MAP4K2 = 0

Nc1nccc(Oc2ccc(NC(=O)c3cn(COP(=O)(O)O)cc(-c4ccc(F)cc4)c3=O)cc2F)c1Cl (10 µM)
inactive: IRAK3 = 0 | JAK1 = 0 | LCK 0 | LIMK1 = 0 | LIMK2 = 0 | LMTK2 = 0 | LYN 0 | MAP2K1 = 0 | MAP2K2 = 0 | MAP4K2 = 0

Cc1c(CN2CCN(C(=O)[C@H](C)O)CC2)sc2c(N3CCOCC3)nc(-c3cnc(N)nc3)nc12 [Apitolisib] (10 µM)
inactive: IRAK3 = 0 | JAK1 = 0 | LCK 0 | LIMK1 = 0 | LIMK2 = 0 | LMTK2 = 0 | LYN 0 | MAP2K1 = 0 | MAP2K2 = 0 | MAP4K2 = 0

C=CC(=O)Nc1ccc(CN(C(=O)Nc2c(Cl)c(OC)cc(OC)c2Cl)c2cc(Nc3ccc(N4CCN(C)CC4)cc3)ncn2)cc1 (10 µM)
inactive: IRAK3 = 0 | JAK1 = 0 | LCK 0 | LIMK1 = 0 | LIMK2 = 0 | LMTK2 = 0 | LYN 0 | MAP2K1 = 0 | MAP2K2 = 0 | MAP4K2 = 0

CC(=O)c1c(C)c2cnc(Nc3ccc(N4CCN(CCCCNC(=O)COc5cccc6c5C(=O)N(C5CCC(=O)NC5=O)C6=O)CC4)cn3)nc2n(C2CCCC2)c1=O (stereo not given) (10 µM)
inactive: IRAK3 = 0 | JAK1 = 0 | LCK 0 | LIMK1 = 0 | LIMK2 = 0 | LMTK2 = 0 | LYN 0 | MAP2K1 = 0 | MAP2K2 = 0 | MAP4K2 = 0

CC1CN(C(=O)Nc2ccc(Cl)c(Cl)c2)C(=Nc2ccc(F)cc2)S1 (stereo not given) (10 µM)
inactive: IRAK3 = 0 | JAK1 = 0 | LCK 0 | LIMK1 = 0 | LIMK2 = 0 | LMTK2 = 0 | LYN 0 | MAP2K1 = 0 | MAP2K2 = 0 | MAP4K2 = 0

N#Cc1c(-c2ccccc2)cc(-c2cc(Br)ccc2O)[nH]c1=O (10 µM)
inactive: IRAK3 = 0 | JAK1 = 0 | LCK 0 | LIMK1 = 0 | LIMK2 = 0 | LMTK2 = 0 | LYN 0 | MAP2K1 = 0 | MAP2K2 = 0 | MAP4K2 = 0

CC(C)(C)NC(=O)c1cncn1C1CCN(c2ccc(-c3nnc(C(F)(F)F)o3)cn2)CC1 (10 µM)
inactive: IRAK3 = 0 | JAK1 = 0 | LCK 0 | LIMK1 = 0 | LIMK2 = 0 | LMTK2 = 0 | LYN 0 | MAP2K1 = 0 | MAP2K2 = 0 | MAP4K2 = 0

COc1cc([N+](=O)[O-])ccc1S(=O)(=O)N1C[C@@H](CN2CCN(c3ccccn3)CC2)[C@H](c2cccc(F)c2)C1 (relative stereo) (10 µM)
inactive: IRAK3 = 0 | JAK1 = 0 | LCK 0 | LIMK1 = 0 | LIMK2 = 0 | LMTK2 = 0 | LYN 0 | MAP2K1 = 0 | MAP2K2 = 0 | MAP4K2 = 0

CCn1c(-c2nonc2N)nc2cnc(Oc3cccc(NC(=O)c4ccc(OCCN5CCOCC5)cc4)c3)cc21 (10 µM)
inactive: IRAK3 = 0 | JAK1 = 0 | LCK 0 | LIMK1 = 0 | LIMK2 = 0 | LMTK2 = 0 | LYN 0 | MAP2K1 = 0 | MAP2K2 = 0 | MAP4K2 = 0

COC1(C(=O)N2Cc3nc(Cl)nc(N[C@H](C)c4cc(N)cc(C(F)(F)F)c4)c3C2)CCOCC1 (10 µM)
inactive: IRAK3 = 0 | JAK1 = 0 | LCK 0 | LIMK1 = 0 | LIMK2 = 0 | LMTK2 = 0 | LYN 0 | MAP2K1 = 0 | MAP2K2 = 0 | MAP4K2 = 0

COc1ccc(C(=C2C(=O)Nc3ccccc32)c2ccc(OC)cc2)cc1 (10 µM)
inactive: IRAK3 = 0 | JAK1 = 0 | LCK 0 | LIMK1 = 0 | LIMK2 = 0 | LMTK2 = 0 | LYN 0 | MAP2K1 = 0 | MAP2K2 = 0 | MAP4K2 = 0

O=C(Nc1nc2ccccc2[nH]1)c1cccc(-n2cccc2)c1 (10 µM)
inactive: IRAK3 = 0 | JAK1 = 0 | LCK 0 | LIMK1 = 0 | LIMK2 = 0 | LMTK2 = 0 | LYN 0 | MAP2K1 = 0 | MAP2K2 = 0 | MAP4K2 = 0

CN1CCN(c2ccc(Nc3ncc4nc(Nc5ccccc5)n([C@@H]5CCN(S(=O)(=O)C6CC6)C5)c4n3)cc2)CC1 (2.5 µM)
inactive: IRAK3 = 0 | JAK1 = 0 | LCK 0 | LIMK1 = 0 | LIMK2 = 0 | LMTK2 = 0 | LYN 0 | MAP2K1 = 0 | MAP2K2 = 0 | MAP4K2 = 0

CCn1c(=O)c(-c2ccc(-c3cncs3)cc2Cl)cc2cnc(Nc3ccc(N4CCN(C)CC4)cc3)nc21 (2.5 µM)
inactive: IRAK3 = 0 | JAK1 = 0 | LCK 0 | LIMK1 = 0 | LIMK2 = 0 | LMTK2 = 0 | LYN 0 | MAP2K1 = 0 | MAP2K2 = 0 | MAP4K2 = 0

COc1cc(N2CCN(C)CC2)ccc1Nc1ncc2c(n1)N(C1CCC1)C(=O)N(c1c(C)cccc1C)C2 (2.5 µM)
inactive: IRAK3 = 0 | JAK1 = 0 | LCK 0 | LIMK1 = 0 | LIMK2 = 0 | LMTK2 = 0 | LYN 0 | MAP2K1 = 0 | MAP2K2 = 0 | MAP4K2 = 0

CC(C)(NS(=O)(=O)c1ccc2c(Cl)cnc(N=C(N)N)c2c1)C(=O)O (10 µM)
inactive: IRAK3 = 0 | JAK1 = 0 | LCK 0 | LIMK1 = 0 | LIMK2 = 0 | LMTK2 = 0 | LYN 0 | MAP2K1 = 0 | MAP2K2 = 0 | MAP4K2 = 0

Cc1ccc(-c2c(C(=O)CCl)n(CCCO)c3ncnc(N)c23)cc1 (10 µM)
inactive: IRAK3 = 0 | JAK1 = 0 | LCK 0 | LIMK1 = 0 | LIMK2 = 0 | LMTK2 = 0 | LYN 0 | MAP2K1 = 0 | MAP2K2 = 0 | MAP4K2 = 0

CC(=NNC(=O)c1ccc(C)c(Br)c1)c1ccc(O)cc1O [mTOR inhibitor-1] (2.5 µM)
inactive: IRAK3 = 0 | JAK1 = 0 | LCK 0 | LIMK1 = 0 | LIMK2 = 0 | LMTK2 = 0 | LYN 0 | MAP2K1 = 0 | MAP2K2 = 0 | MAP4K2 = 0

From the supplement of paper PMC12823440, “Inhibitors supercharge kinase turnover through native proteolytic circuits” (Nature, 2025)
